Data reported in PubChem BioAssay AID2685 (National Center for Advancing Translational Sciences (NCATS), 2010).
The other results are listed elsewhere or left out. Further columns of the screen follow, without active or inactive calls. Most of these compounds were active or inconclusive in the main read-out, so they are no random draw. Words in brackets tell the shape of the fitted curve; partial curves, single points and poor fits give uncertain potencies.

Assay: qHTS Assay for Lipid Storage Modulators in Drosophila S3 Cells;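 for cell number change: cells counted by Cell Tracker Red CMTPX staining in the red channel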
Conditions: BODIPY lipid droplet fluorescence, 18-24 h; for cell number change: measured here: cell count max response, cells fed with added oleic acid
Summary of the method: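 Drosophila S3 cells got compounds at several concentrations plus oleic acid (400 uM solution). Laser-scanning cytometry with 488 nm excitation read lipid droplets at 500-530 nm and cells at 575-640 nm. Percent activity was relative to 20 uM Triacsin C.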

[1] = measured here: cell number channel AC50, cells fed with added oleic acid
[2] = measured here: lipid fluorescence (Fed channel) AC50, cells fed with added oleic acid

| Structure (SMILES) | cell number change | AC50 [1] | AC50 [2] |
| --- | --- | --- | --- |
| CC1(C(=O)Nc2cccc(S(=O)(=O)N3CCOCC3)c2)Cc2ccccc2C(=O)O1 (stereo not drawn) | 51.8% |  |  |
| O=c1c2cc(NC(=S)N3CCCC3)ccc2nc2n1CCCCC2 |  | 6.51 µM [rising, partial curve, poor fit] |  |
| Cc1ccccc1NC(=O)CC(O)(C(F)(F)F)C(F)(F)F |  | 1.3 µM [rising, partial curve] |  |
| CCCSc1nc(N)c(C#N)c(-c2ccc(C)cc2)c1C#N |  | 6.51 µM [rising, single point] |  |
| Cc1ccccc1NS(=O)(=O)c1cccc(C(=O)Nc2cccc(C(=O)O)c2)c1 | 23.8% |  |  |
| CCN(Cc1cc(=O)oc2cc(C)ccc12)c1ccccc1 | -15.9% |  | 29.1 µM [falling, single point] |
| COc1ccc([C@@H]2CC=C(C(=O)O)[C@H](c3ccccc3)N2S(=O)(=O)c2ccccc2C)cc1 | 22% |  | 29.1 µM [rising, single point] |
| Cc1cc(C(F)(F)F)nc(SCC(=O)Nc2c(C)n(C)n(-c3ccccc3)c2=O)n1 | 10.8% |  | 1.16 µM [falling, single point] |
| CC1CCCC(C)N1/N=C/c1ccccc1C(=O)O (stereo not drawn) | -98.6% |  |  |
| CC1Cc2ccccc2N1C(=O)CCNS(=O)(=O)c1cccc2nsnc12 (stereo not drawn) | 25.6% |  | 8.2 µM [rising, partial curve, poor fit] |
| CC(=O)Nc1ccc(S(=O)(=O)NCc2ccc(C(=O)NCc3ccc(Cl)cc3)cc2)cc1 | 47.9% | 8.2 µM [rising, partial curve, poor fit] | 6.51 µM [falling, single point] |
| COCCN(CC1CCCN(C2Cc3ccccc3C2)C1)C(=O)CSC (stereo not drawn) | 14.2% |  |  |
| CCC(NS(=O)(=O)c1cnn(CC)c1)c1ccccc1 (stereo not drawn) | -9.01% |  | 5.17 µM [falling, full curve, poor fit] |
| O=C(O)COn1c(-c2ccc(Cl)cc2)nc2ccc(Cl)cc21 | 9.24% |  | 29.1 µM [falling, partial curve] |
| O=C(NCC(=O)N(c1ccc(F)cc1)C(C(=O)NC1CCCCC1)c1cccnc1)c1ccco1 (stereo not drawn) | 5.83% |  | 8.2 µM [rising, partial curve] |
| Cn1cc(/C=C(\C#N)C(=O)Nc2ncc(Cc3ccc(Cl)cc3)s2)c2ccccc21 | -6.54% | 0.103 µM [rising, full curve, poor fit] | 2.06 µM [rising, partial curve] |
| COc1ccc(CNC(=O)C(C)N(C)Cc2cccc(F)c2)cc1 (stereo not drawn) | 31.9% | 13 µM [rising, partial curve, poor fit] | 8.2 µM [rising, partial curve] |
| CCNS(=O)(=O)c1ccc(OC)c(C)c1 | 6.34% |  | 16.4 µM [rising, partial curve, poor fit] |
| CC1=CN2C(=N)/C(=C/c3ccc(Sc4ccc(C)cc4)o3)C(=O)N=C2S1 | 31.1% | 6.51 µM [rising, partial curve] | 29.1 µM [rising, single point] |
| Cc1ccc(C(=O)C2CCN(CC(=O)Nc3nc(C)cs3)CC2)cc1 | -17.4% |  | 0.92 µM [rising, full curve, poor fit] |

Copied from the listing, 2 compounds:

| Structure (SMILES) | cell number change | AC50 [1] | AC50 [2] |
| --- | --- | --- | --- |
| Cc1ccccc1NC(=O)CC(O)(C(F)(F)F)C(F)(F)F |  | 1.3 µM [rising, partial curve] |  |
| CCCSc1nc(N)c(C#N)c(-c2ccc(C)cc2)c1C#N |  | 6.51 µM [rising, single point] |  |

The listing continues.

| Structure (SMILES) | cell number change | AC50 [1] | AC50 [2] |
| --- | --- | --- | --- |
| Cc1ccc(N(Cc2ccccc2)C(=O)c2ccc(Cl)c(S(=O)(=O)N3CCOCC3)c2)cc1 |  |  | 13 µM [rising, partial curve] |
| CC(C)=CCc1c(O)c(CC=C(C)C)c2c(c1O)C(=O)CC(c1ccc(O)cc1)O2 (stereo not drawn) | -31.3% | 29.1 µM [falling, single point] |  |
| Cc1ccc(OS(=O)(=O)c2ccc(N3C(=O)CCC3=O)cc2)cc1 | -9.21% | 0.00461 µM [falling, full curve, poor fit] | 5.62 µM [rising, single point] |
| CCN(CC(=O)Nc1ccc(NC(C)=O)cc1)C(=O)CCCOc1ccc(C(C)(C)C)cc1 | 13.5% |  | 29.1 µM [falling, single point] |
| CC(NS(=O)(=O)OCC(Cl)(Cl)Cl)c1ccc(Br)cc1 (stereo not drawn) | -20.4% |  |  |
| Cc1ccc(NC(=O)CSc2nnc([C@H](C)NC(=O)OC(C)(C)C)o2)c(C)c1 | -7.84% |  | 2.91 µM [rising, single point] |
| Fc1ccc(NC(=S)Nc2ccc(Cl)cc2)cc1 | -24.9% | 4.11 µM [falling, full curve, poor fit] |  |
| Cc1ccc(C)c(OCC(=O)NCCN(C)C)c1 | 33% | 4.11 µM [falling, single point] | 0.731 µM [falling, full curve] |
| Cc1ccc(Nc2cc(C)nc3ncnn23)c(C)c1 | 0.587% |  | 29.1 µM [falling, single point] |
| Cc1ccc(OCCn2c(C3CC(=O)N(Cc4ccccc4)C3)nc3ccccc32)cc1 (stereo not drawn) | 26% |  |  |
| O=C(O)CSc1ncnc2scc(-c3ccccc3)c12 | 23.1% |  | 0.0651 µM [rising, full curve, poor fit] |
| NC(=O)c1cc([N+](=O)[O-])ccc1NCCN1C(=O)c2ccc(C(=O)O)cc2C1=O | 6.5% | 6.51 µM [falling, single point] | 6.51 µM [falling, single point] |
| CSc1cccc(NC(=O)Nc2ccccc2)c1 | -1.36% |  |  |
| C=CCNC(=O)/C=C/c1ccc(C(C)C)cc1 | 15.4% |  | 3.66 µM [rising, partial curve, poor fit] |
| O=C(Cn1nc(C(F)F)cc1C(F)F)NNC(=S)Nc1ccc(F)cc1 | -11.6% |  | 0.731 µM [falling, full curve, poor fit] |
| O=C(C1COc2ccccc2O1)N1CCN(S(=O)(=O)c2ccccc2)CC1 (stereo not drawn) | -1.03% |  |  |
| Cc1nnc(SCC(=O)NC2CCCCC2)n1C1CCCCC1 |  |  | 29.1 µM [rising, single point] |
| O=C(CSC1=Nc2ccccc2C2=NC(CC(=O)NC3CCCCC3)C(=O)N12)NCc1ccco1 (stereo not drawn) | 4.56% |  | 29.1 µM [rising, single point] |
| N#CCCN(CC(=O)O)S(=O)(=O)c1ccccc1 | -50.9% | 5.8 µM [falling, full curve] | 5.17 µM [falling, full curve] |
